For 4 molecules, binding results are on record in publication PMC5841288.

Protein sequences, listed by entry. Tags and fused reporters are not part of them. Lines headed by an entry give the natural chain unless they say otherwise; changes in a name come on top. Chains listed by the source or under a name are the forms on record and can include a tag or linker.
UniProt Q8C863: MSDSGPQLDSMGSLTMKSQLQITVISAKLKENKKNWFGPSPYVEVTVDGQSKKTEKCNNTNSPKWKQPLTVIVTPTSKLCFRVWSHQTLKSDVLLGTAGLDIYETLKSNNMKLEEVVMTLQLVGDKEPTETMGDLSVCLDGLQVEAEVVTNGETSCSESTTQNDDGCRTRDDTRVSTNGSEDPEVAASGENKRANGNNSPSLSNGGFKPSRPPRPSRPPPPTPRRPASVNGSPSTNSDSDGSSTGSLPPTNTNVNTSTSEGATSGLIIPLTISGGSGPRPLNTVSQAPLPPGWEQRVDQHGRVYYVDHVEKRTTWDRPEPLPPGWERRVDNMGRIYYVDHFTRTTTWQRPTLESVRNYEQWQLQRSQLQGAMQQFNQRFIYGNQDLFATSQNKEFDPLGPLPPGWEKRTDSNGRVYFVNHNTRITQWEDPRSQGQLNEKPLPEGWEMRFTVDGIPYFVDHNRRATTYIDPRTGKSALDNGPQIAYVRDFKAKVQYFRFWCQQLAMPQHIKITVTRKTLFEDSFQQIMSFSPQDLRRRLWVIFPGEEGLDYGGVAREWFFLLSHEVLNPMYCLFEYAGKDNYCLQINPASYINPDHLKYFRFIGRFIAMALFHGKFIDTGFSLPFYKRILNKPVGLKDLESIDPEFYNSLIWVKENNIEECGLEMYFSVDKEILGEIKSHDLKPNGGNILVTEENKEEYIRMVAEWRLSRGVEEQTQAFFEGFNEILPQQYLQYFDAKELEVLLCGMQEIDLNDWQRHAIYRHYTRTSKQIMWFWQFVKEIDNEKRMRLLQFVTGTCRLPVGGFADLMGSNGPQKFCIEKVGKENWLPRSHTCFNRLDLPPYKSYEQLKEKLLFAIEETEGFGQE
Flag-Itch (Q96J02, form named): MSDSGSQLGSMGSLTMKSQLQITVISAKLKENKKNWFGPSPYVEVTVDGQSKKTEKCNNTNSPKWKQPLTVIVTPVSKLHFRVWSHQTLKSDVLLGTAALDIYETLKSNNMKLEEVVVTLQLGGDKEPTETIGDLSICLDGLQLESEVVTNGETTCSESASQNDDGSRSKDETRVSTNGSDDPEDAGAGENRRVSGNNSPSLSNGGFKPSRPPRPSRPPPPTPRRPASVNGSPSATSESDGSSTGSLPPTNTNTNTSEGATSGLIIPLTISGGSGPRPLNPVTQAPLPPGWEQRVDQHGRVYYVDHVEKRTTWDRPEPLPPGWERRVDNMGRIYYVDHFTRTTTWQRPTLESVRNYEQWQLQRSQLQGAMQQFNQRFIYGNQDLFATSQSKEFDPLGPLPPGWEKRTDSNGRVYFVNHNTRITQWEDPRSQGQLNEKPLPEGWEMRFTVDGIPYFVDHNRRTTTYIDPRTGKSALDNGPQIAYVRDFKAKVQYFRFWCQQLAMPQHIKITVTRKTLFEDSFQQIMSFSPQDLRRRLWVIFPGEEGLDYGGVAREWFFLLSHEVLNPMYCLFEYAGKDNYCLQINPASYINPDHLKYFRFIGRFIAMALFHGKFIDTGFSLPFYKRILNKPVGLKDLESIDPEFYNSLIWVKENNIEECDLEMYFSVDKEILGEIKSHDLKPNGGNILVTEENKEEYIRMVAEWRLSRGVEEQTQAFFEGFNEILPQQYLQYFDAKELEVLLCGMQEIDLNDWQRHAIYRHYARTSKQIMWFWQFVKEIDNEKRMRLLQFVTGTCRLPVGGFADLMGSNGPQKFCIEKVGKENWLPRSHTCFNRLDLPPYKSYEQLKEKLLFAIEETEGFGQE
UniProt Q61602: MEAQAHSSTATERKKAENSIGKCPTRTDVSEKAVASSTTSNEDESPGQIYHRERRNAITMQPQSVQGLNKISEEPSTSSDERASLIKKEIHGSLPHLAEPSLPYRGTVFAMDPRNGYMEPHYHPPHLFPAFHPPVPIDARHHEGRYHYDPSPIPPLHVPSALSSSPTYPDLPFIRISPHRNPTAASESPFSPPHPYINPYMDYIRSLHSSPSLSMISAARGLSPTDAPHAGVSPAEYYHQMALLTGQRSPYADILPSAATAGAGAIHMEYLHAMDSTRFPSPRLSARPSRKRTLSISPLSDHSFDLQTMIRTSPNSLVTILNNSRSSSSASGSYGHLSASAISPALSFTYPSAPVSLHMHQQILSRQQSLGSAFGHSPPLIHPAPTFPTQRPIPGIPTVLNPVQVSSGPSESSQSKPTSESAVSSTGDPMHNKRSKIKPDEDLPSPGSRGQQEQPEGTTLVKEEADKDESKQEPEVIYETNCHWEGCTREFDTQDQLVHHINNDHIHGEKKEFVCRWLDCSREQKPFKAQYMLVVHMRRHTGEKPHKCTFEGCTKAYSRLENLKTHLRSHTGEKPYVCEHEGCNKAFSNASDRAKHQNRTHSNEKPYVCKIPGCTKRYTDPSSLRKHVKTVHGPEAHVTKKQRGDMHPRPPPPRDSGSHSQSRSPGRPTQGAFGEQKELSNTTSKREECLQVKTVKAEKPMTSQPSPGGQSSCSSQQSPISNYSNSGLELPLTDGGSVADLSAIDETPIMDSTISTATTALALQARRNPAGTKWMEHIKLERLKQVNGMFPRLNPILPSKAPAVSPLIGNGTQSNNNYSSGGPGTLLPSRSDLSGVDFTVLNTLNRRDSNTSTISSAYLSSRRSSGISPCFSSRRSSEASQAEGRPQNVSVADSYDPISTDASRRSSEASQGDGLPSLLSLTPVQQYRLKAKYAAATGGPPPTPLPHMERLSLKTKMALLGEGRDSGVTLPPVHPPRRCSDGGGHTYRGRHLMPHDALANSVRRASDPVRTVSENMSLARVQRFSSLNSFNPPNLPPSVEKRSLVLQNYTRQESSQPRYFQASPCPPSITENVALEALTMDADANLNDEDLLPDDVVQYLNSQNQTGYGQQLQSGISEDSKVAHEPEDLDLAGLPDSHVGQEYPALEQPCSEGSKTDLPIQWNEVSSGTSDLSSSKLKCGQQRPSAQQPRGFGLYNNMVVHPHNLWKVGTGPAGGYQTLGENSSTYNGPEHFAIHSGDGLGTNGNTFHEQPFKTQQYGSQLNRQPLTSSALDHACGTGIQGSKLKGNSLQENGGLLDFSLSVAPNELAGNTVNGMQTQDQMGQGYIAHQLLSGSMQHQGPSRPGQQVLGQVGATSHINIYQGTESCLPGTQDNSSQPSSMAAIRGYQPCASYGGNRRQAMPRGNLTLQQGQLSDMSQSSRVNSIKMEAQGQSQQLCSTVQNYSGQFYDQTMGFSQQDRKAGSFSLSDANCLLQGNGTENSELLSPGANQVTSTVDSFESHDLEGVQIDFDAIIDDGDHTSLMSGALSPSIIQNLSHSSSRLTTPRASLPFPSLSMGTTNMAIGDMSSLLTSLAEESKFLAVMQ
UniProt Q91YI4: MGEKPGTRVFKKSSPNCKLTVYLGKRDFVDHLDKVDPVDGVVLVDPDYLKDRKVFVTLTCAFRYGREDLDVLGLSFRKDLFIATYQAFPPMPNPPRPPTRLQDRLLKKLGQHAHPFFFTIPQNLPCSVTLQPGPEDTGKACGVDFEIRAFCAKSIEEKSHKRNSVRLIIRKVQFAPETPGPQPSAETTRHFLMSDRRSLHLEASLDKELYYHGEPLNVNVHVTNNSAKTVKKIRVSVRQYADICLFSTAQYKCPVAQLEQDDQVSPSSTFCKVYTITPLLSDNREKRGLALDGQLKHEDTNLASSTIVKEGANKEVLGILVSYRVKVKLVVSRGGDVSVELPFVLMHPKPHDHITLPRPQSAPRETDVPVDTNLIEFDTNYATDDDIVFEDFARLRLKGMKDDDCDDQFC
UniProt P32121: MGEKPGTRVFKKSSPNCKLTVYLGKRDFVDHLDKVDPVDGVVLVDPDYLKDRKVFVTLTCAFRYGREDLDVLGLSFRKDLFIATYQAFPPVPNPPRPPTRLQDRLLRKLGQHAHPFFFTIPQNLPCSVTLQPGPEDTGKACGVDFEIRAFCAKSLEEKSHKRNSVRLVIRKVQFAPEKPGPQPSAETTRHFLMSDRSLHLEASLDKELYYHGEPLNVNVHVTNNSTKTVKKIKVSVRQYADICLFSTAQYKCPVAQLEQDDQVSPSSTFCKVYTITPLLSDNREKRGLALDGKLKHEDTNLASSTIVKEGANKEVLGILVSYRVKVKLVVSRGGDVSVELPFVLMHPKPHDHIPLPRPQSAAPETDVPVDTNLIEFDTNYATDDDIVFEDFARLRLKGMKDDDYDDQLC

These are yes or no findings as the source states them, for the method shown. Binding seen in cells or lysates may run through a third protein. Some entries that bind do so weakly or less than the wild type.

For assay [1], the target named is endogenous Itch (mouse) (mouse (endogenous in MEFs, CD1 mouse cerebellum and Ptch+/- MB tissue)) (UniProt Q8C863). Description: co-IP; anti-Itch IP from lysates of CD1 mouse cerebellum (P3, P7, P10, P15) and of Ptch+/- MB tissue.
For assay [2] the target is unchanged. Description: co-IP; βArr2-/- MEFs with or without transfected HA-β-arrestin2; IP and immunoblot with the indicated antibodies.
Assay [3] concerns the target Flag-Itch (UniProt Q96J02). Description: co-IP; NIH3T3 cells transfected with Flag-Itch and HA-SuFu or HA-β-arrestin2, treated with SAG (200 nM for 6 h) or vehicle; anti-Flag IP.
For assay [4], the target named is Flag-Itch (UniProt Q96J02). Description: co-IP; WT MEFs transfected with combinations of Flag-Itch, GFP-β-arrestin2 and HA-SuFu; anti-Flag IP (1st IP), two elutions with Flag peptide, re-IP with HA-agarose (2nd IP).
In assay [5] the target is endogenous Gli3 (mouse) (mouse (endogenous in MEFs and CD1 mouse cerebellum)) (UniProt Q61602). As to the kind of experiment: co-IP; anti-Gli3 IP from lysates of CD1 mouse cerebellum (P3, P7, P10, P15).
Assay [6] deals with endogenous Itch (mouse) (mouse (endogenous in MEFs, CD1 mouse cerebellum and Ptch+/- MB tissue)) (UniProt Q8C863). Description: co-IP; βArr2-/- MEFs with or without transfected HA-β-arrestin2; IP and immunoblot with the indicated antibodies. This is another data set of the same source.
Assay [7] deals with endogenous Gli3 (mouse) (mouse (endogenous in MEFs and CD1 mouse cerebellum)) (UniProt Q61602). Description: co-IP; anti-Gli3 IP from lysates of WT MEFs (siItch or siCTR) and of Itch-/- MEFs transfected with the indicated plasmids; immunoblot of SuFu, ratio to Gli3FL. In general terms: Immunoblotting shows a protein as a band on a membrane.

Regarding “endogenous β-arrestin2 (mouse) (from UniProt Q91YI4 1-410)”, the binding entry in assay [1] is given as “binds”.

On to “HA-β-arrestin2 (from UniProt P32121 1-409)”, for which the binding result (in assay [2]; with Flag-Itch [3]) was “binds” in each case.

As to “GFP-β-arrestin2 (from UniProt P32121 1-409)”, in the assay with Flag-Itch [4], the binding entry is “binds”.

B1: endogenous SuFu (mouse) (protein, UniProt Q9Z0P7 1-484)
chain: MAELRPSVAPGPAAPPASGPSAPPAFASLFPPGLHAIYGECRRLYPDQPNPLQVTAIVKYWLGGPDPLDYVSMYRNMGSPSANIPEHWHYISFGLSDLYGDNRVHEFTGTDGPSGFGFELTFRLKRETGESAPPTWPAELMQGLARYVFQSENTFCSGDHVSWHSPLDNSESRIQHMLLTEDPQMQPVRTPFGVVTFLQIVGVCTEELHSAQQWNGQGILELLRTVPIAGGPWLITDMRRGETIFEIDPHLQERVDKGIETDGSNLSGVSAKCAWDDLSRPPEDEEDSRSICLGTQPRRLSGKDTEQIRETLRRGLEINSKPVLPPINSQRQNGLTHDRAPSRKDSLGSDSSTAIIPHELIRTRQLESVHLKFNQESGALIPLCLRGRLLHGRHFTYKSITGDMAITFVSTGVEGAFATEEHPYAAHGPWLQILLTEEFVEKMLEDLEDLTSPEEFKLPKEYSWPEKKLKVSILPDVVFDSPLH
Regarding B1, the binding entry in assay [5], in assay [6], in assay [7] and in assay [1] was “binds” throughout.
